The test relates to L1210 leukemia ip in BDF1 mice, survival T/C. The test can be described thus: NCI In Vivo Anticancer Drug Screen. Data for tumor model L1210 Leukemia (intraperitoneal) in B6D2F1 (BDF1) mice. Conditions: T/C endpoint: mean survival time, higher T/C = longer survival.
Setting [1] is: dose: 66.0 mg/kg/injection, schedule: Q01DX009 (ip), vehicle: saline.
[2] abbreviates: dose: 100.0 mg/kg/injection, schedule: Q01DX001 (ip), vehicle: saline.
The mark [3] stands for this setting: dose: 150.0 mg/kg/injection, schedule: Q01DX001 (ip), vehicle: saline.
Where [4] appears, read: dose: 300.0 mg/kg/injection, schedule: Q01DX001 (ip), vehicle: saline.
The mark [5] stands for this setting: dose: 400.0 mg/kg/injection, schedule: Q04DX003 (ip), vehicle: saline with Tween-80.

SMILES strings stand for the structures. The list shows only some results of the screen, not a fair sample: it is rich in T/C values a quarter to a half above the control, in often repeated tests (any T/C) and in doses without a T/C. Further doses and runs are listed elsewhere. T/C: endpoint of the treated group in % of that of the vehicle group. Some entries give survivors of the animals treated and no T/C: the source holds a T/C of zero for them, seemingly a mark for toxic or unscored doses. Some doses without a T/C left all or most animals alive at the check, yet need not have been tolerated: the source hardly ever lists a survival T/C far under the control, and the zero likely stands for such cases as well. Counts of survivors are from the toxicity check (mostly the fifth day) where no day follows; animals may have died later. Schedule codes are those of the source, taken here to give the interval after Q, in days (D) or hours (H), and the number of doses after X. Some schedules carry Z or #; the key to these is not given. Some structures stand for samples that the source files as different forms (salt, stereo form or complex); doses refer to the form tested. Some doses were run more than once; the results are listed from low to high. Counts like (3×) count equal records among those shown. For survival time, this PubChem deposit counts one and a half times the control or more as active, and values a quarter to a half above the control carry no call in these data; other NCI protocols may use other cut-offs.

Drawing on PubChem BioAssay AID248 (DTP/NCI, 2004), this text covers survivor count and T/C for 16 compounds.

Take `C=CC(=O)N1CCN(C(=O)C=C)CC1` (tested in a mixture with another compound): the survivor count was 0 of 3 (dose: 0.04 mg/kg/injection, schedule: Q04DX002 (ip), vehicle: saline); 0 of 3 (dose: 0.09 mg/kg/injection, schedule: Q04DX002 (ip), vehicle: saline); 0 of 3 and 3 of 3 (dose: 0.18 mg/kg/injection, schedule: Q04DX002 (ip), vehicle: saline); 0 of 3 (2×) (dose: 0.37 mg/kg/injection, schedule: Q04DX002 (ip), vehicle: saline); 0 of 3 (2×) (dose: 0.75 mg/kg/injection, schedule: Q04DX002 (ip), vehicle: saline); 0 of 3 (2×) (dose: 1.5 mg/kg/injection, schedule: Q04DX002 (ip), vehicle: saline). The survivor count (dose: 3.1 mg/kg/injection, schedule: Q04DX002 (ip), vehicle: saline) is 0 of 3 (2×) and 1 of 3; the survivor count (dose: 3.12 mg/kg/injection, schedule: Q04DX002 (ip), vehicle: saline) is listed as 0 of 3; the survivor count (dose: 6.25 mg/kg/injection, schedule: Q04DX002 (ip), vehicle: saline) is 0 of 3 (3×); the survivor count (dose: 12.5 mg/kg/injection, schedule: Q04DX002 (ip), vehicle: saline) was 0 of 3 (3×); the survivor count (dose: 25.0 mg/kg/injection, schedule: Q04DX002 (ip), vehicle: saline) was 0 of 3 (3×); the survivor count (dose: 50.0 mg/kg/injection, schedule: Q04DX002 (ip), vehicle: saline + alcohol) is 0 of 3. Moreover, the survivor count by setting is: (dose: 50.0 mg/kg/injection, schedule: Q04DX002 (ip), vehicle: saline) 0 of 3 (4×); (dose: 100.0 mg/kg/injection, schedule: Q04DX002 (ip), vehicle: Klucel (hydroxypropylcellulose) (HPC)) 0 of 3; (dose: 100.0 mg/kg/injection, schedule: Q04DX002 (ip), vehicle: saline + alcohol) 0 of 3; (dose: 100.0 mg/kg/injection, schedule: Q04DX002 (ip), vehicle: saline) 0 of 3 (3×) and 1 of 3; (dose: 200.0 mg/kg/injection, schedule: Q04DX002 (ip), vehicle: Klucel (hydroxypropylcellulose) (HPC)) 0 of 3; (dose: 200.0 mg/kg/injection, schedule: Q04DX002 (ip), vehicle: saline + alcohol) 0 of 3. The survivor count (dose: 200.0 mg/kg/injection, schedule: Q04DX002 (ip), vehicle: saline) was 0 of 3 (2×) and 2 of 3; the survivor count (dose: 400.0 mg/kg/injection, schedule: Q04DX002 (ip), vehicle: Klucel (hydroxypropylcellulose) (HPC)) was 1 of 3; the survivor count (dose: 400.0 mg/kg/injection, schedule: Q04DX002 (ip), vehicle: saline) is on record as 0 of 3.
In the case of `CC1CN1P(=O)(N1CC1C)N1CC1C` (stereo not drawn), the T/C is 126 % of control (dose: 8.8 mg/kg/injection, schedule: Q01DX009 (ip), vehicle: saline); 134 % of control (dose: 20.0 mg/kg/injection, schedule: Q01DX009 (ip), vehicle: saline); 130 % of control (dose: 29.0 mg/kg/injection, schedule: Q01DX009 (ip), vehicle: saline, evaluated on day 30); 138 % of control (dose: 29.0 mg/kg/injection, schedule: Q01DX009 (ip), vehicle: saline, run until all animals had died); 128 % of control (dose: 44.0 mg/kg/injection, schedule: Q01DX001 (ip), vehicle: saline); 130 % of control under setting [1]. In addition, the T/C is, setting by setting: (dose: 75.0 mg/kg/injection, schedule: Q01DX001 (ip), vehicle: saline) 139 % of control; under setting [2], 143 % of control. In addition, the survivor count runs as follows: under setting [1], 6 of 6; under setting [2], 6 of 6; (dose: 100.0 mg/kg/injection, schedule: Q01DX009 (ip), vehicle: saline) 5 of 6; under setting [3], 5 of 6; (dose: 150.0 mg/kg/injection, schedule: Q01DX009 (ip), vehicle: saline) 5 of 6; (dose: 200.0 mg/kg/injection, schedule: Q01DX001 (ip), vehicle: saline) 0 of 4. The survivor count (dose: 225.0 mg/kg/injection, schedule: Q01DX009 (ip), vehicle: saline) is 5 of 6; the survivor count under setting [4] is 3 of 4; the survivor count (dose: 400.0 mg/kg/injection, schedule: Q01DX001 (ip), vehicle: saline) is reported as 1 of 4.
For the compound `COc1ccc2c3c1OC1C(C)=CCC4C(C2)N(C)CCC314` (stereo not drawn), the survivor count is, setting by setting: under setting [3], 0 of 6; under setting [4], 1 of 6.
In the case of `ClCCN(CCCl)CCCN1c2ccccc2Sc2ccccc21`, the survivor count (dose: 25.0 mg/kg/injection, schedule: Q01DX009 (ip), vehicle: saline with Tween-80) is listed as 2 of 6; the survivor count (dose: 50.0 mg/kg/injection, schedule: Q01DX009 (ip), vehicle: saline with Tween-80) is on record as 0 of 6; the survivor count (dose: 100.0 mg/kg/injection, schedule: Q04DX003 (ip), vehicle: saline with Tween-80) was 3 of 6. Also, the T/C (dose: 25.0 mg/kg/injection, schedule: Q04DX003 (ip), vehicle: saline with Tween-80) was 125 % of control.
Regarding `C/C=C/C=C/C=N/N=C(N)N`, the survivor count (dose: 30.0 mg/kg/injection, schedule: Q01DX Z (ip), vehicle: carboxymethylcellulose (CMC)) is listed as 2 of 6; the survivor count (dose: 60.0 mg/kg/injection, schedule: Q01DX Z (ip), vehicle: carboxymethylcellulose (CMC)) is 0 of 6; the survivor count (dose: 120.0 mg/kg/injection, schedule: Q01DX Z (ip), vehicle: carboxymethylcellulose (CMC)) is reported as 0 of 6; the survivor count (dose: 480.0 mg/kg/injection, schedule: Q01DX Z (oral), vehicle: carboxymethylcellulose (CMC)) is recorded as 1 of 6; the survivor count (dose: 960.0 mg/kg/injection, schedule: Q01DX Z (oral), vehicle: carboxymethylcellulose (CMC)) was 0 of 6.
In the case of `Clc1ccc(-c2nnc(-c3cccc4ccccc34)o2)cc1Cl`, where the note is “dose: 200.0 mg/kg/injection, schedule: Q01DX009 (ip), vehicle: saline with Tween-80”, the survivor count is on record as 6 of 6.
Turning to `NC(N)=Nc1cccc(OCCCOc2ccccc2)c1`, the survivor count (dose: 75.0 mg/kg/injection, schedule: Q01DX001 (ip), vehicle: saline with Tween-80) is given as 6 of 6.
`NCc1cc(=O)[nH]c(=O)[nH]1`: the survivor count (dose: 200.0 mg/kg/injection, schedule: Q04DX003 (ip), vehicle: saline) is listed as 2 of 4.
Take `CC(=O)OCC1OC(N2C(=O)/C(=C/c3c(Cl)cccc3Cl)SC2=S)C(OC(C)=O)C(OC(C)=O)C1OC(C)=O` (stereo not drawn): the survivor count (dose: 400.0 mg/kg/injection, schedule: Q01DX005 (ip), vehicle: other) is given as 1 of 6.
`S=C(n1ccnc1)n1ccnc1`: where the note is “dose: 335.0 mg/kg/injection, schedule: Q01DX009 (ip), vehicle: saline”, the survivor count is recorded as 0 of 6.
Turning to `CC(C)(C)C(=O)CC(=O)C(C)(C)C.CC(C)(C)C(=O)CC(=O)C(C)(C)C.[Ni]`, the survivor count is given as 1 of 6 (dose: 75.0 mg/kg/injection, schedule: Q04DX003 (ip), vehicle: saline); 0 of 6 (dose: 150.0 mg/kg/injection, schedule: Q04DX003 (ip), vehicle: saline); 0 of 6 (dose: 300.0 mg/kg/injection, schedule: Q04DX003 (ip), vehicle: saline).
For the compound `CCCCCCc1nc2nc(Cl)c(Cl)nc2[nH]1`, the survivor count reads like this: (dose: 200.0 mg/kg/injection, schedule: Q04DX003 (ip), vehicle: saline with Tween-80) 6 of 6; under setting [5], 6 of 6.
In the case of `O=C(CCN1CC=C(c2ccccc2)CC1)c1ccc(Oc2ccccc2)cc1`, the survivor count under setting [5] is reported as 1 of 6.
Consider `CC(C)CC(NC(=O)OC(C)(C)C)C(=O)NC(Cc1c[nH]c2ccccc12)C(=O)NN` (stereo not drawn), for which the survivor count (dose: 200.0 mg/kg/injection, schedule: Q01DX001 (ip), vehicle: carboxymethylcellulose (CMC)) is reported as 6 of 6.
With `Cc1cn(CC(C)C)c(=O)n(-c2ccccc2)c1=O`, the survivor count (dose: 200.0 mg/kg/injection, schedule: Q01DX Z (ip), vehicle: methylcellulose (MC)) was 6 of 6.
`CC1(C)OC2OC(/C=C\C=O)C3OC(C)(C)OC3C2O1` (stereo not drawn): the survivor count (dose: 400.0 mg/kg/injection, schedule: Q04DX003 (ip), vehicle: acetone) is reported as 5 of 6.
